Experimental data published in PubChem BioAssay AID2417 (National Center for Advancing Translational Sciences (NCATS), 2010).
Screen size: about 140,000 compounds; about 4,300 (3.1%) were called active. The inconclusive results got no clear call from the source; some entries with a clear call stand among them for comparison.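 How the source made its calls: active means readout at or below -70, meaning at least 70% loss of cells showing the perinucleolar compartment, a nuclear body marking cancer cells; inconclusive means readout between -30 and a set limit; inactive means the rest.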

Test: High Content Assay for Compounds that inhibit the Assembly of the Perinucleolar Compartment;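 further: plate controls were DMSO wells for no effect and camptothecin positive control wells for full effect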
Conditions: PC3M PTB-GFP, PNC prevalence imaging, 16 h; at 10 µM; stronger effect = lower value
Procedure, shortened: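 PC3M cells stably expressing PTB-GFP, 750–1000 cells/well, treated 16 h at 37 °C with compound (23 nl of library stock), in duplicate. After paraformaldehyde fixation and Hoechst stain, imaged at 20x; PNC prevalence scored by image analysis.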

Structure (SMILES) | activity change (PNC), negative = inhibition
CCS(=O)(=O)Nc1ccc(C(=O)c2ccccc2)cc1 | inactive: -22.6%
CCOC(=O)c1c(C(F)(F)C(F)(F)C(F)(F)C(F)(F)F)n[nH]c1C | inconclusive: -38.2%
O=C(C1CC(c2ccccc2O)=NO1)N1CCCCC1 (stereo unspecified) | inconclusive: -33.7%
CCN1C(=O)CC(Sc2ccccc2C(=O)O)C1=O (stereo unspecified) | inconclusive: -47.6%
CCC(C)NC(=O)CSc1nc2ccc(N3CCOCC3)cc2c(=O)n1CCc1ccccc1 (stereo unspecified) | inconclusive: -40%
CCOC(=O)C1CCN(C(=O)/C=C/c2cc(OC)c(OC)c(OC)c2)CC1 | inactive: 5.16%
COc1ccc(N2C(N)=C(C#N)C(c3cccnc3)C3=C2CC(C)(C)CC3=O)cc1 (stereo unspecified) | inconclusive: -32.8%
COc1ccc(NC(=O)CSc2ccc(C)cc2)cc1 | inconclusive: -55.3%
CC(C)NC(=O)NC(=O)COC(=O)c1ccc(NC(=O)CC#N)cc1 | inconclusive: -58%
Cc1ccc(NC(=O)c2ccc(NCCN)c([N+](=O)[O-])c2)cc1 | inactive: 66.3%
Cc1ccc(C(c2nnnn2CCC(C)C)N2CCN(C)CC2)cc1 (stereo unspecified) | inconclusive: -56.3%
CC1CC(C)CN(S(=O)(=O)c2ccc(NC(=S)NC(=O)c3ccccc3)cc2)C1 (stereo unspecified) | inconclusive: -76.1%
CCN(CC)c1ccc(C2C(C(=O)OC)=C(C)NC(C)=C2C(=O)OC)cc1 | inactive: -17.8%
O=C(CCl)Nc1cc(-c2ccccc2)nn1-c1ccccc1 | inconclusive: -40%
CCc1ccc2oc(-c3cc(N=Cc4cccc(OC)c4O)ccc3O)nc2c1 | inconclusive: -41.8%
COc1cc(C(=O)Nc2ccccc2N2CCN(S(C)(=O)=O)CC2)cc(OC)c1OC | inactive: 5.22%
Cc1cc(C)n(-c2ccc(C(=O)Nc3ccc(S(=O)(=O)N(C)C)cc3)cc2)n1 | inconclusive: -75.7%
O=c1c2ccccc2nc(-c2ccccc2)n1CCCN1CCOCC1 | inconclusive: -35.7%
O=C(/C=C/c1cc([N+](=O)[O-])ccc1OC(F)F)Nc1cccc(OC(F)F)c1 | inactive: -10.8%
O=[N+]([O-])c1cc(C(F)(F)F)ccc1NN=C1CCCC1 | inconclusive: -43.5%
Cc1cccc(N2CCN(Cc3cc(=O)n4ccsc4n3)CC2)c1C | inactive: -27.3%
COc1cc(C(N)=O)cc(Br)c1OC | inconclusive: -46.9%
COc1ccc(S(=O)(=O)CCc2nnc(NC(=O)c3cccs3)s2)cc1 | inactive: -29.6%

Structure (SMILES) | activity change (PNC), negative = inhibition
O=C(NN=C1CCCCCC1)c1cc(-c2ccccc2)nc2ccccc12 | inactive: -10.4%
Cc1sc2ncnc(NCCN3CCOCC3)c2c1C | inconclusive: -30.1%
COc1ccc(C2=NOC(C(=O)NCc3ccccn3)C2)cc1 (stereo unspecified) | inconclusive: -47.8%
CCCCC(=O)Nc1ccccc1C#N | inconclusive: -43.9%
Cc1ncc(N=Nc2ccccc2Cl)c(-c2ccccc2)n1 | inactive: 28.6%
CCC(C)C(=O)Nc1nnc(-c2cccs2)s1 (stereo unspecified) | inconclusive: -42.9%
Cc1ccc(-c2cc(C(=O)NCc3ccco3)c3ccccc3n2)s1 | inconclusive: -46.7%
CC(C)C1C2=C(CC(C)(C)CC2=O)ON1c1ccccc1 (stereo unspecified) | active: -90.5%
COc1ccccc1N1CCN(C(=O)c2cnn3cccnc23)CC1 | inactive: 27.3%
N#CC1=C(N)Oc2cc(O)ccc2C1C1CCCCC1 (stereo unspecified) | inconclusive: -31.3%
CC(C)OC(=O)CN1CCN(C2c3ccccc3-c3ccccc32)CC1 | inconclusive: -30.1%
Cc1cccc(NC(=S)NN(Cc2ccccc2)c2ccccc2)c1C | inconclusive: -30.6%
CCC(CO)Nc1ncc([N+](=O)[O-])cc1C#N (stereo unspecified) | inactive: 15.8%
COC(=O)c1sccc1NC(=O)Cc1ccc(OC)cc1 | inconclusive: -50.9%
Cn1c(=S)[nH]c2cccnc21 | inconclusive: -30.1%
O=C(O)c1ccc(NC(=S)NC(NC(=O)c2ccco2)C(Cl)(Cl)Cl)cc1 (stereo unspecified) | inconclusive: -53.6%
CCOC(=O)c1cc(CC)sc1NC(=O)c1cc([N+](=O)[O-])ccc1N1CCOCC1 | active: -83.9%
Cc1ccc(Cn2nnc3c(=O)n(CC(=O)NCc4ccco4)cnc32)cc1 | inactive: -12.4%
COc1cc2c(cc1NC(C)=O)CCCC2 | inconclusive: -79.9%
O=C(O)CSc1cccc2cccc(C(=O)O)c12 | inconclusive: -67.2%
Cc1ccc(C(=O)Oc2oc(-c3ccccc3)nc2C=Nc2ccc(N(C)C)cc2)cc1 | inconclusive: -63.3%
COc1cc(C)c(S(=O)(=O)NCc2cccs2)cc1C | inactive: -6.43%
O=C(NCCc1ccccc1)C(=O)NCC1(c2ccccc2)CCCC1 | inconclusive: -40.3%

Quoted from the listing:
activity change (PNC), negative = inhibition with `N#CC1=C(N)Oc2cc(O)ccc2C1C1CCCCC1` (stereo unspecified) reads inconclusive: -31.3%
activity change (PNC), negative = inhibition with `O=C(C1CC(c2ccccc2O)=NO1)N1CCCCC1` (stereo unspecified) reads inconclusive: -33.7%
activity change (PNC), negative = inhibition with `Cc1cc(C)n(-c2ccc(C(=O)Nc3ccc(S(=O)(=O)N(C)C)cc3)cc2)n1` reads inconclusive: -75.7%
activity change (PNC), negative = inhibition with `COc1ccccc1N1CCN(C(=O)c2cnn3cccnc23)CC1` reads inactive: 27.3%

(listing goes on)

Structure (SMILES) | activity change (PNC), negative = inhibition
COc1ccc(-c2nc(Cn3c(SCc4ccc(C)cc4)nc4ccncc43)c(C)o2)cc1OC | inconclusive: -47.4%
O=C(COC(=O)CSc1nnc(-c2ccc(Cl)cc2)o1)NCc1ccc2c(c1)OCO2 | inconclusive: -57.2%
O=c1c2ccccc2nc2n1C1(CCCCC1)Cc1ccccc1-2 | inconclusive: -62.5%
CCOc1ccc(S(=O)(=O)NCC2CCCO2)c2cccnc12 (stereo unspecified) | inconclusive: -47.6%
COc1ccc2c(c1)O[C@@H](c1cccc(C(F)(F)F)c1)[C@H](O)C2=O | inconclusive: -57.5%
Clc1ccc(-c2csc(N3CCc4ccccc4C3)n2)cc1 | inconclusive: -48.7%
CCCNC(=O)NC1C(NC(=O)NCCC)N(C)C(=O)N1C (stereo unspecified) | inconclusive: -54.7%
N#Cc1c(-c2ccccc2F)cc(-c2cccnc2)nc1N | active: -95.9%
CC(C)NC(=O)c1ccc2c(c1)N(CC(=O)N1CCOCC1)C(=O)C(C)(C)O2 | inactive: -4.75%
O=C(CSc1ccc(Cl)cc1)Nc1ccc(N2CCN(C(=O)c3ccco3)CC2)cc1 | inconclusive: -49.9%
O=C1C(N2CCOCC2)=C(n2nnc3ccccc32)C(=O)c2ccccc21 | inactive: 12.2%
Cc1ccc(S(=O)(=O)NC2OC(=O)C(Cl)=C2Cl)cc1 (stereo unspecified) | inconclusive: -71%
CCOc1cc(/C=N/NC(=O)c2nn(C)cc2Br)ccc1OCc1ccccc1Cl | active: -112%
COc1cc(OC)cc(-c2nnc(SCc3cccnc3)o2)c1 | inconclusive: -62.9%
OC(CSc1ccccc1Cl)CN1CCN(c2ccccc2F)CC1 (stereo unspecified) | inconclusive: -31.2%
Cc1ccc(NC(=O)CC2C(=O)OCC3CCCCN32)cc1Cl (stereo unspecified) | inconclusive: -62.8%
COc1ccc(C2NC(=O)NC(C)=C2C(C)=O)cc1 (stereo unspecified) | inactive: 12.2%
CC1CCCC(NC(=O)CSc2nnnn2C)C1C (stereo unspecified) | inconclusive: -61.8%
CCC(Sc1nc2c(c(=O)n1CC)SC(C)C2)C(=O)OC (stereo unspecified) | inconclusive: -32.1%
Nc1nc(N)nc(-c2ccc(Cl)cc2)n1 | inactive: 6.3%
CC1=C(C(=O)OCc2ccccc2)C(c2ccoc2)C(C#N)=C(N)O1 (stereo unspecified) | inconclusive: -44.6%
Cc1ccccc1Nc1ncnc2c1cnn2-c1ccccc1 | inactive: 28.4%
O=C(CCSCc1ccccc1Cl)N1CCN(c2ccccn2)CC1 | inactive: 11.7%

Structure (SMILES) | activity change (PNC), negative = inhibition
COc1ccccc1C(c1nnnn1Cc1ccccc1)N1CCC(C(N)=O)CC1 (stereo unspecified) | inconclusive: -45.5%
O=C(c1ccc2ccccc2n1)N1CCN(c2ccccc2O)CC1 | active: -95.7%
CC(C)C(=O)Nc1cc2c(cc1C(=O)c1ccccc1)OCCO2 | inconclusive: -44%
O=C(CSc1nc2ccccc2s1)N1c2ccccc2Sc2ccc(Cl)cc21 | inconclusive: -63.2%
COc1ccc(C2C(C(=O)N3CCN(C)CC3)c3ccccc3C(=O)N2C2CCCCC2)cc1 (stereo unspecified) | inconclusive: -38.5%
COc1ccc2[nH]c(=O)c(CN(C)C(=O)C3CCCCC3)cc2c1 | inconclusive: -54.5%
CCOC(=O)N1CC=C2C(C#N)=C(N)C(C#N)(C#N)[C@H](c3ccc(OC(C)C)c(OCC)c3)[C@H]2C1 | inconclusive: -41.9%
COc1ccc(CC(=O)N2N=C(C)CC2(O)c2cccnc2)cc1OC (stereo unspecified) | inconclusive: -36.3%
COC(=O)c1cc(NC(=O)C2(S(=O)(=O)c3ccc(C)cc3)CC2)cc(C(=O)OC)c1 | inconclusive: -61.1%
COc1cccc(NC(=O)c2cc(CN3C(=O)c4ccccc4C3=O)ccc2OC)c1 | inactive: -13.8%
COc1cc(OC)cc(C(=O)NC(=S)NCCc2ccccc2)c1 | inactive: 33.1%
Clc1ccc(Cc2nnc(-c3ccccc3Br)o2)cc1 | inactive: 51.6%
COC(=O)C1CCN(C(c2cc(OC)c(OC)c(OC)c2)c2sc3nc(C)nn3c2O)CC1 (stereo unspecified) | inconclusive: -54.3%
Cc1nc2c(C(=O)N3CCCCC3)cnn2c(C)c1Cc1ccccc1F | inactive: 2.64%
C/C(=N\NC(=O)c1ccccc1)c1ccc(N2CCCCC2)cc1 | inconclusive: -70.6%
c1ccc(CCC2=NCCn3cccc32)cc1 | inconclusive: -52.9%
CCOC(=O)c1c(C)[nH]c2c1-c1ccccc1C(=O)C2=O | active: -124%
O=C(Cn1c(=O)n(Cc2ccco2)c(=O)c2c3c(sc21)CCCCC3)c1ccccc1 | inactive: 9.49%
O=C1OC(/C=C/c2ccc(Cl)cc2)=NC/1=C/c1ccco1 | inactive: -29.7%
Cn1cc(SCC(=O)N2CCOCC2)c2ccccc21 | active: -108%
CCOC(=O)Cn1nnnc1CN(Cc1ccc(OC)cc1)Cc1cc2cc(C)ccc2[nH]c1=O | inconclusive: -56.9%
COc1ccc2c(c1)O[C@H](c1ccc3c(c1)OCO3)[C@@H](OC(=O)N[C@H]1CCCc3ccccc31)C2=O | inconclusive: -35.1%
